Values from PubChem BioAssay AID1508588 (Peter MacCallum Cancer Centre, 2020)
Screen: 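Which gene losses make BRAF-mutant melanoma cells more responsive to vemurafenib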 (primary screen). System: human WM266.4 melanoma cells (BRAF V600 mutant). Reagents: siRNA pool against human genes, 40 nM. Time to read-out: 96 h from transfection to read-out. Conditions: vemurafenib 300 nM (about IC25), added 48 h after transfection, for 48 h; comparison arm got DMSO vehicle only. Detection: 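Ratios to non-targeting siRNA for cell gain, counted as DAPI nuclei after minus before drug and averaged over two replicates, and for absorbance-read medium lactate per cell; both binned into fold-change classes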. Reading the numbers: cell gain with vemurafenib: higher = more cell gain than with non-targeting siRNA; lactate per cell with vemurafenib: higher = more lactate made per cell. Active means: 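a knock-down counts as enhancing when its fold-change classes with vehicle and with vemurafenib, taken together, show a stronger drug effect on cell gain or lactate per cell; exact class pairs not stated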. Calls: active = enhances vemurafenib effect; inactive = no enhancement seen.
This is an unselected part of about 18,000 reagents tested. 790 of them (4.4%) were called active. 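Calls rest on a combination of fold-change classes in drug and vehicle arms, not all shown here.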

gene symbol | PubChem SID | cell gain with vemurafenib | lactate per cell with vemurafenib | Call
IGFBP7 (insulin like growth factor binding protein 7) | SID135621617 | 0.79 | 0.92 | inactive
HOXD8 (homeobox D8) | SID134317475 | 0.59 | 0.68 | inactive
NEUROG1 (neurogenin 1) | SID134313893 | 0.62 | 0.66 | inactive
DHRS7B (dehydrogenase/reductase 7B) | SID152150200 | 0.22 | 1.27 | inactive
SEMA6A (semaphorin 6A) | SID152151964 | 0.66 | 0.64 | inactive
MMADHC (metabolism of cobalamin associated D) | SID134318062 | 1.25 | 0.47 | inactive
UBE2K (ubiquitin conjugating enzyme E2 K) | SID135621773 | 0.16 | 0.95 | active
GARIN4 (golgi associated RAB2 interactor family member 4) | SID152147612 | 0.28 | 0.4 | active
GBF1 | SID135623833 | 0.63 | 0.72 | inactive
MAST4 | SID135625002 | 0.79 | 1.02 | inactive
SMNDC1 (survival motor neuron domain containing 1) | SID134320257 | 0.31 | 1.7 | inactive
RAB11FIP5 (RAB11 family interacting protein 5) | SID152147339 | 0.45 | 1.63 | inactive
LEPROT (leptin receptor overlapping transcript) | SID152152272 | 0.22 | 3.49 | inactive
UBE2I (ubiquitin conjugating enzyme E2 I) | SID134310672 | 0.11 | 0.92 | inactive
TBL1XR1 (TBL1X/Y related 1) | SID135622421 | 0.82 | 0.7 | inactive
COXFA4L2 (cytochrome c oxidase hypoxia associated subunit FA4L2) | SID134320123 | 0.66 | 1.48 | inactive
CCL17 (C-C motif chemokine ligand 17) | SID134312768 | -0.05 | 1.52 | inactive
MGAT4B | SID152150071 | 0.42 | 0.6 | inactive
KDM7A (lysine demethylase 7A) | SID135624505 | 0.97 | 0.75 | inactive
FBXL3 (F-box and leucine rich repeat protein 3) | SID134316694 | 0.64 | 0.76 | inactive
TMEM215 (transmembrane protein 215) | SID152148209 | 0.84 | 0.92 | inactive
ADCY7 (adenylate cyclase 7) | SID134311977 | 0.58 | 1.52 | inactive
LEMD1 (LEM domain containing 1) | SID135624251 | 0.77 | 0.58 | inactive
CCT4 (chaperonin containing TCP1 subunit 4) | SID134323883 | 0.8 | 0.71 | inactive
PP2D1 (protein phosphatase 2C like domain containing 1) | SID152152910 | 0.88 | 0.52 | inactive
MCM9 | SID135623361 | 0.81 | 0.64 | inactive
SLC30A1 | SID152148042 | 0.63 | 0.7 | inactive
ZNF474 (zinc finger protein 474) | SID134329509 | 0.73 | 0.87 | inactive
DDX20 (DEAD-box helicase 20) | SID134317696 | 0.58 | 0.52 | inactive
IMPG1 (interphotoreceptor matrix proteoglycan 1) | SID152150741 | 0.65 | 0.86 | inactive
MT1M (metallothionein 1M) | SID135623447 | 0.15 | 1.35 | inactive
VPS13B (vacuolar protein sorting 13 homolog B) | SID135622414 | 0.49 | 1.34 | inactive
UBFD1 (ubiquitin family domain containing 1) | SID135624139 | 0.87 | 0.62 | inactive
PAQR6 (progestin and adipoQ receptor family member 6) | SID152152296 | 0.52 | 1.57 | inactive
CDC123 (cell division cycle 123) | SID152147554 | 0.58 | 1.35 | inactive
WDR5B (WD repeat domain 5B) | SID134317602 | 0.39 | 1.29 | inactive
TRPT1 (tRNA phosphotransferase 1) | SID135622809 | 0.65 | 0.35 | active
SIK2 (salt inducible kinase 2) | SID135620885 | 0.29 | 1.67 | inactive
ZNF135 (zinc finger protein 135) | SID134323219 | 1.2 | 0.72 | inactive
UMOD (uromodulin) | SID152151837 | 0.33 | 0.82 | inactive
COX19 (cytochrome c oxidase assembly factor COX19) | SID135625209 | 1.06 | 1.4 | inactive
PKD2L2 | SID152147305 | 0.46 | 0.74 | inactive
ASIC4 (acid sensing ion channel subunit family member 4) | SID134311527 | 0.45 | 0.86 | inactive

9 of these entries, set out differently.
gene symbol,PubChem SID,cell gain with vemurafenib,lactate per cell with vemurafenib,Call
GBF1,SID135623833,0.63,0.72,inactive
MAST4,SID135625002,0.79,1.02,inactive
SMNDC1 (survival motor neuron domain containing 1),SID134320257,0.31,1.7,inactive
RAB11FIP5 (RAB11 family interacting protein 5),SID152147339,0.45,1.63,inactive
LEPROT (leptin receptor overlapping transcript),SID152152272,0.22,3.49,inactive
UBE2I (ubiquitin conjugating enzyme E2 I),SID134310672,0.11,0.92,inactive
TBL1XR1 (TBL1X/Y related 1),SID135622421,0.82,0.7,inactive
COXFA4L2 (cytochrome c oxidase hypoxia associated subunit FA4L2),SID134320123,0.66,1.48,inactive
CCL17 (C-C motif chemokine ligand 17),SID134312768,-0.05,1.52,inactive

Next results follow:
gene symbol | PubChem SID | cell gain with vemurafenib | lactate per cell with vemurafenib | Call
OTUD4 (OTU deubiquitinase 4) | SID134314619 | 0.79 | 0.92 | inactive
RERE (arginine-glutamic acid dipeptide repeats) | SID135621556 | 0.65 | 1.75 | inactive
LHX8 (LIM homeobox 8) | SID135625300 | 0.68 | 0.45 | inactive
TONSL (tonsoku like, DNA repair protein) | SID134317879 | 0.62 | 0.58 | inactive
LBR (lamin B receptor) | SID134325079 | 0.56 | 1.54 | inactive
EXOC6 (exocyst complex component 6) | SID152147793 | 0.49 | 0.46 | inactive
POLR1C (RNA polymerase I and III subunit C) | SID135621667 | 0.9 | 1.04 | inactive
MAP3K8 (mitogen-activated protein kinase kinase kinase 8) | SID56478664 | 0.1 | 1.52 | inactive
PHLPP1 (PH domain and leucine rich repeat protein phosphatase 1) | SID135623677 | 0.85 | 0.57 | inactive
DLX1 (distal-less homeobox 1) | SID135623506 | 0.51 | 0.57 | inactive
CDCA2 (cell division cycle associated 2) | SID135624516 | 0.62 | 0.58 | inactive
ZKSCAN4 (zinc finger with KRAB and SCAN domains 4) | SID135625097 | 0.99 | 0.25 | active
TRIM16L (tripartite motif containing 16 like (pseudogene)) | SID152154347 | 0.84 | 0.86 | inactive
SLC22A1 | SID135621371 | 0.67 | 0.85 | inactive
KBTBD3 (kelch repeat and BTB domain containing 3) | SID134320942 | 0.56 | 1.56 | inactive
GNPDA2 (glucosamine-6-phosphate deaminase 2) | SID134313530 | 0.85 | 1.16 | inactive
ASPN (asporin) | SID134325055 | 0.8 | 0.81 | inactive
NOMO1 (NODAL modulator 1) | SID135621980 | 1.08 | 0.86 | inactive
REST (RE1 silencing transcription factor) | SID152153863 | 0.69 | 1.46 | inactive
MRPL22 (mitochondrial ribosomal protein L22) | SID135623302 | 0.19 | 1.8 | inactive
PJVK (pejvakin) | SID135625601 | 0.37 | 1.08 | inactive
OR13J1 (olfactory receptor family 13 subfamily J member 1) | SID135624826 | 0.96 | 1.03 | inactive
DUS2 (dihydrouridine synthase 2) | SID152156208 | 1.19 | 0.74 | inactive
RAB8A (RAB8A, member RAS oncogene family) | SID134310151 | 0.51 | 0.97 | inactive
RAB11FIP4 (RAB11 family interacting protein 4) | SID152155614 | 0.38 | 1.62 | inactive
GLOD5 (glyoxalase domain containing 5) | SID135624999 | 0.72 | 1.1 | inactive
TIGAR (TP53 induced glycolysis regulatory phosphatase) | SID152152059 | 0.78 | 0.66 | inactive
RPUSD3 (RNA pseudouridine synthase D3) | SID152155487 | 0.73 | 0.68 | inactive
MED30 (mediator complex subunit 30) | SID134319292 | 0.55 | 0.64 | inactive
A2M (alpha-2-macroglobulin) | SID152153859 | 0.35 | 1.75 | inactive
OR2A4 (olfactory receptor family 2 subfamily A member 4) | SID134313883 | 0.84 | 1.02 | inactive
CCDC42 (coiled-coil domain containing 42) | SID134319839 | 0.58 | 0.94 | inactive
RBM15 (RNA binding motif protein 15) | SID134315270 | 0.66 | -0.11 | inactive
FASTKD5 (FASTK mitochondrial RNA regulator 5) | SID134321084 | 0.72 | 0.6 | inactive
AP1S2 (adaptor related protein complex 1 subunit sigma 2) | SID134321381 | 0.61 | 0.76 | inactive
LAMB2 (laminin subunit beta 2) | SID152151727 | 0.62 | 1.83 | inactive
SKAP1 (src kinase associated phosphoprotein 1) | SID152154182 | 0.42 | 1.09 | inactive
COL17A1 (collagen type XVII alpha 1 chain) | SID152148528 | 0.8 | 0.74 | inactive
SNX19 (sorting nexin 19) | SID152156616 | 0.22 | 1.38 | inactive
RASAL3 (RAS protein activator like 3) | SID152151909 | 0.52 | 0.8 | inactive
TSPAN17 (tetraspanin 17) | SID152148844 | 0.81 | 1.03 | inactive
